# According to PMC3830446:
# Sequences of proteins named here, by UniProt entry; tags and fusion partners are left off.
# UniProt P30086: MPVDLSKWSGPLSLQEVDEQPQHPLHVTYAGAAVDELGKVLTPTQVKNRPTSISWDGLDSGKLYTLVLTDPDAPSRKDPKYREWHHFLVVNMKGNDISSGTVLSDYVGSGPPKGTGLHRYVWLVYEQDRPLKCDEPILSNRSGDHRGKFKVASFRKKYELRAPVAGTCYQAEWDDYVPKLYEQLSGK
# Results are given in words; binding and its absence hold for the method and conditions named. Binding seen in cells or lysates may run through a third protein. These calls come from enrichment with a bait or labelling near it, and not all partners need be listed.
# B1: Malate dehydrogenase, mitochondrial (protein, UniProt P40926 25-338)
# chain: AKVAVLGASGGIGQPLSLLLKNSPLVSRLTLYDIAHTPGVAADLSHIETKAAVKGYLGPEQLPDCLKGCDVVVIPAGVPRKPGMTRDDLFNTNATIVATLTAACAQHCPEAMICVIANPVNSTIPITAEVFKKHGVYNPNKIFGVTTLDIVRANTFVAELKGLDPARVNVPVIGGHAGKTIIPLISQCTPKVDFPQDQLTALTGRIQEAGTEVVKAKAGAGSATLSMAYAGARFVFSLVDAMNGKEGVVECSFVKSQETECTYFSTPLLLGKKGIEKNLGIGKVSSFEEKMISDAIPELKASIKKGEDFVKTLK
# B2: Serpin H1 (protein, UniProt P50454 19-418)
# chain: AEVKKPAAAAAPGTAEKLSPKAATLAERSAGLAFSLYQAMAKDQAVENILVSPVVVASSLGLVSLGGKATTASQAKAVLSAEQLRDEEVHAGLGELLRSLSNSTARNVTWKLGSRLYGPSSVSFADDFVRSSKQHYNCEHSKINFRDKRSALQSINEWAAQTTDGKLPEVTKDVERTDGALLVNAMFFKPHWDEKFHHKMVDNRGFMVTRSYTVGVMMMHRTGLYNYYDDEKEKLQIVEMPLAHKLSSLIILMPHHVEPLERLEKLLTKEQLKIWMGKMQKKAVAISLPKGVVEVTHDLQKHLAGLGLTEAIDKNKADLSRMSGKKDLYLASVFHATAFELDTDGNPFDQDIYGREELRSPKLFYADHPFIFLVRDTQSGSLLFIGRLVRPKGDKMRDEL
# B3: Peroxiredoxin-1 (protein, UniProt Q06830 1-199)
# chain: MSSGNAKIGHPAPNFKATAVMPDGQFKDISLSDYKGKYVVFFFYPLDFTFVCPTEIIAFSDRAEEFKKLNCQVIGASVDSHFCHLAWVNTPKKQGGLGPMNIPLVSDPKRTIAQDYGVLKADEGISFRGLFIIDDKGILRQITVNDLPVGRSVDETLRLVQAFQFTDKHGEVCPAGWKPGSDTIKPDVQKSKEYFSKQK
# B4: Heterogeneous nuclear ribonucleoprotein R, isoform 1 (protein, UniProt O43390 1-633)
# chain: MANQVNGNAVQLKEEEEPMDTSSVTHTEHYKTLIEAGLPQKVAERLDEIFQTGLVAYVDLDERAIDALREFNEEGALSVLQQFKESDLSHVQNKSAFLCGVMKTYRQREKQGSKVQESTKGPDEAKIKALLERTGYTLDVTTGQRKYGGPPPDSVYSGVQPGIGTEVFVGKIPRDLYEDELVPLFEKAGPIWDLRLMMDPLSGQNRGYAFITFCGKEAAQEAVKLCDSYEIRPGKHLGVCISVANNRLFVGSIPKNKTKENILEEFSKVTEGLVDVILYHQPDDKKKNRGFCFLEYEDHKSAAQARRRLMSGKVKVWGNVVTVEWADPVEEPDPEVMAKVKVLFVRNLATTVTEEILEKSFSEFGKLERVKKLKDYAFVHFEDRGAAVKAMDEMNGKEIEGEEIEIVLAKPPDKKRKERQAARQASRSTAYEDYYYHPPPRMPPPIRGRGRGGGRGGYGYPPDYYGYEDYYDDYYGYDYHDYRGGYEDPYYGYDDGYAVRGRGGGRGGRGAPPPPRGRGAPPPRGRAGYSQRGAPLGPPRGSRGGRGGPAQQQRGRGSRGSRGNRGGNVGGKRKADGYNQPDSKRRQTNNQQNWGSQPIAQQPLQQGGDYSGNYGYNNDNQEFYQDTYGQQWK
# B5: Annexin A1 (protein, UniProt P04083 1-346)
# chain: MAMVSEFLKQAWFIENEEQEYVQTVKSSKGGPGSAVSPYPTFNPSSDVAALHKAIMVKGVDEATIIDILTKRNNAQRQQIKAAYLQETGKPLDETLKKALTGHLEEVVLALLKTPAQFDADELRAAMKGLGTDEDTLIEILASRTNKEIRDINRVYREELKRDLAKDITSDTSGDFRNALLSLAKGDRSEDFGVNEDLADSDARALYEAGERRKGTDVNVFNTILTTRSYPQLRRVFQKYTKYSKHDMNKVLDLELKGDIEKCLTAIVKCATSKPAFFAEKLHQAMKGVGTRHKALIRIMVSRSEIDMNDIKAFYQKMYGISLCQAILDETKGDYEKILVALCGGN
# Target: RKIP-3xFLAG fusion protein (UniProt P30086)
# Experiment: affinity purification with mass spectrometry; RKIP-3xFLAG from transfected SGC7901 cells held on anti-FLAG M2 magnetic beads (overnight, 4°C); 1D SDS-PAGE, in-gel trypsin digestion, ESI-Q-TOF MS/MS; 3xFLAG (blank carrier) and blank groups as controls; repeated three times
row,Binder,binding
1,B1,binds
2,B2,binds
3,B3,binds
4,B4,binds
5,B5,binds
